For orientation: MIC means the smallest concentration in the dilution series that meets the test's criterion for growth inhibition.

In brackets after ≈: the same amount, converted by molar mass.

This experiment deals with Candida albicans. The experiment is described as follows: Antimicrobial activity, broth microdilution MIC. The experiment is classed as cell-based. To be noted: tested 256 to 0.5 µg mL^−1, 24 h, '-' not defined, no MIC in tested range, read-out: MIC C. albicans.

Take `C[C@@H]1[C@H](O)[C@@H](C)/C=C/C=C/C=C/C=C/C=C/C=C/C=C/[C@H](O[C@@H]2O[C@H](C)[C@@H](O)[C@H](N)[C@@H]2O)C[C@@H]2O[C@](O)(C[C@@H](O)C[C@@H](O)[C@H](O)CC[C@@H](O)C[C@@H](O)CC(=O)O[C@H]1C)C[C@H](O)[C@H]2C(=O)O` [Amphotericin B, reference compound]: the MIC amounted to 1 µg/mL (≈ 1.08 µM).

Values taken from paper PMC8618934, “Synthesis, Crystal Structure, and Biological Evaluation of Novel 5-Hydroxymethylpyrimidines” (Materials, 2021).
